The supplement of paper PMC12823440, “Inhibitors supercharge kinase turnover through native proteolytic circuits” (Nature, 2025)
The other results are listed elsewhere or left out. The calls rarely recur for the same compound in another form.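 Kinases, fused to nanoluciferase, were expressed in K562 cells; luminescence was measured every 4 h from 2 to 18 h as percent of control (DMSO = 100%, positive control = 0%). A time point is decreased if signal falls significantly (2 sigma). Hits were called by the authors by a rule that is not shown; the count of time points alone does not decide it.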

By UniProt entry, the sequences of proteins in these tests, tags left out. Where a name states a change or a piece, a line headed by the entry shows the natural chain unless it says otherwise.
UniProt Q8IWU2: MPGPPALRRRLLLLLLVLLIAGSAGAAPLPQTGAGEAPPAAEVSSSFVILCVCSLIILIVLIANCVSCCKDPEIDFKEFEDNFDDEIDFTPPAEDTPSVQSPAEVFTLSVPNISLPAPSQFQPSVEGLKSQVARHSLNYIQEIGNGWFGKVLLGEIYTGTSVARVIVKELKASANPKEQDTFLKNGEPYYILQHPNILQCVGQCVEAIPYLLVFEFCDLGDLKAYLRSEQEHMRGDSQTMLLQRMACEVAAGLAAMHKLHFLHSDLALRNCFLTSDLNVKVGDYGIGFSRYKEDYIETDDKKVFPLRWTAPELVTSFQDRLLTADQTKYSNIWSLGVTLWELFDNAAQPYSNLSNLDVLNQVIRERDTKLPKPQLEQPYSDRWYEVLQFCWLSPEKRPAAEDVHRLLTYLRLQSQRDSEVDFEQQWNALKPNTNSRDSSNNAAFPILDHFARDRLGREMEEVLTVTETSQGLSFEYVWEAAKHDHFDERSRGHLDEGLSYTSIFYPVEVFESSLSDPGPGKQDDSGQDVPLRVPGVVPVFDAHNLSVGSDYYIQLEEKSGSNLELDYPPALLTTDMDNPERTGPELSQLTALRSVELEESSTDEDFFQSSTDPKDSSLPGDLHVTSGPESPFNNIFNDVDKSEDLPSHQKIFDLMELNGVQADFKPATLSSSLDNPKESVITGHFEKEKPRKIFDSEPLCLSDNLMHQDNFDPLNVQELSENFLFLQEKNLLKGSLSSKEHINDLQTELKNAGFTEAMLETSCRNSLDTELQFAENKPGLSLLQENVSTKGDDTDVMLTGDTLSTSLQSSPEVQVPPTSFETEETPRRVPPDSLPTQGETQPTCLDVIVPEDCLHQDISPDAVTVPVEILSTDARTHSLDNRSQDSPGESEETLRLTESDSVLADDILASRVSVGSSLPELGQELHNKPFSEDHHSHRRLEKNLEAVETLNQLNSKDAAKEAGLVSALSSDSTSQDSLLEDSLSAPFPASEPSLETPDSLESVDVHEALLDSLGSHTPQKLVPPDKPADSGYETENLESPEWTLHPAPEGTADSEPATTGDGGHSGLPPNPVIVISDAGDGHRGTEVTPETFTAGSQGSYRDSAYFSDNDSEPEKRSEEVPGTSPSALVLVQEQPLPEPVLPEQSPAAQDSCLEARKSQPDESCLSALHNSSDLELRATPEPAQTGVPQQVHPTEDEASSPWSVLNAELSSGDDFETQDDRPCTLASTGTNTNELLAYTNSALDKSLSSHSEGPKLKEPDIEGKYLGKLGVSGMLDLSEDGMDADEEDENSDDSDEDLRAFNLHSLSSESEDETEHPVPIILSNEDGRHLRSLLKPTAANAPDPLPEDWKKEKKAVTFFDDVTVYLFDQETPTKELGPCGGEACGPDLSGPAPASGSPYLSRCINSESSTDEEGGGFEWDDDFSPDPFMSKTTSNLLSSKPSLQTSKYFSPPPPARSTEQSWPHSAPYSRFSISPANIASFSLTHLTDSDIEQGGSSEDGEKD
UniProt P07948: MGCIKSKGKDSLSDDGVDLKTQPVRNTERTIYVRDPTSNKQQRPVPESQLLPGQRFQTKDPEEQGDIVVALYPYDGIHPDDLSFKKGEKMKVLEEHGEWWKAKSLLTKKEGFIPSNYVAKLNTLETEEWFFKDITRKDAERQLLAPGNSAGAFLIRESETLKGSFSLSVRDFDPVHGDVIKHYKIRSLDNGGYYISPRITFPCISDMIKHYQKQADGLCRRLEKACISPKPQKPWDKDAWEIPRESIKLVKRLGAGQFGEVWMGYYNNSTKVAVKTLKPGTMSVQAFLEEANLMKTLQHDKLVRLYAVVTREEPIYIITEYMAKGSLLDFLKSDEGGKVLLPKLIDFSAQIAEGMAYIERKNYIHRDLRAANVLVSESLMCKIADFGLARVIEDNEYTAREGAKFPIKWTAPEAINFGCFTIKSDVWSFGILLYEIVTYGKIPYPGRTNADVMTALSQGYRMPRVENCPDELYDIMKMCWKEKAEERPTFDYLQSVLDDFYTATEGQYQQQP
UniProt Q12851: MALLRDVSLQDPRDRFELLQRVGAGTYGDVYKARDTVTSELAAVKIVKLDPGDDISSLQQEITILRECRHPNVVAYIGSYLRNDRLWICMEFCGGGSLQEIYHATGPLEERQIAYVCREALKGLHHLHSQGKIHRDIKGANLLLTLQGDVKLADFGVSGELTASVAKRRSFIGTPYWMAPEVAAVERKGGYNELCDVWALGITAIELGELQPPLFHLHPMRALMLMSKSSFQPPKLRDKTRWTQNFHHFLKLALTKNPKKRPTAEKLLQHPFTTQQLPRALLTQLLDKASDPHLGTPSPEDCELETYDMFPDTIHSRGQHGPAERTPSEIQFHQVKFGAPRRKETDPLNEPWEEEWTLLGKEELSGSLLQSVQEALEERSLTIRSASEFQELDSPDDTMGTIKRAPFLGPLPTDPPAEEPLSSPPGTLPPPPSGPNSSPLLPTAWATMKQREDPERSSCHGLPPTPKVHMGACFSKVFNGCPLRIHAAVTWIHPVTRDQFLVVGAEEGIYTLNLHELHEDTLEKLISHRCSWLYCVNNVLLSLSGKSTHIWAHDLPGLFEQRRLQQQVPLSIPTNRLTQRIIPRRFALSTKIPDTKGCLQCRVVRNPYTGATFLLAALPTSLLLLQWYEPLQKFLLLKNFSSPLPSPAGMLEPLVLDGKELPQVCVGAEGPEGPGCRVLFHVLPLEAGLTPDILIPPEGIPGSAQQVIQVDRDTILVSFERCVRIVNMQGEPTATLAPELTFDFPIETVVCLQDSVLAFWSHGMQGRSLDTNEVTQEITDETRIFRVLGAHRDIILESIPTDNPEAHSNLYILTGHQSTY
UniProt P28482, whole entry: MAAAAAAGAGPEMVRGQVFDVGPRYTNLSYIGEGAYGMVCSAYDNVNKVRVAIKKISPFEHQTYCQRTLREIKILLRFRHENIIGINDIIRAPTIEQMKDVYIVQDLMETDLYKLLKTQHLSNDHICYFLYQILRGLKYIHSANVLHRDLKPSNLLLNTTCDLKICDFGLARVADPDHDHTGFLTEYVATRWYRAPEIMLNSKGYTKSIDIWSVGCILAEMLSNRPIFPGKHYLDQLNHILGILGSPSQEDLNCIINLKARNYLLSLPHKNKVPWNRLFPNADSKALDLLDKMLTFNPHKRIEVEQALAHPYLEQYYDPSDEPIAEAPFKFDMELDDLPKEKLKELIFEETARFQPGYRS
UniProt P31152, whole entry: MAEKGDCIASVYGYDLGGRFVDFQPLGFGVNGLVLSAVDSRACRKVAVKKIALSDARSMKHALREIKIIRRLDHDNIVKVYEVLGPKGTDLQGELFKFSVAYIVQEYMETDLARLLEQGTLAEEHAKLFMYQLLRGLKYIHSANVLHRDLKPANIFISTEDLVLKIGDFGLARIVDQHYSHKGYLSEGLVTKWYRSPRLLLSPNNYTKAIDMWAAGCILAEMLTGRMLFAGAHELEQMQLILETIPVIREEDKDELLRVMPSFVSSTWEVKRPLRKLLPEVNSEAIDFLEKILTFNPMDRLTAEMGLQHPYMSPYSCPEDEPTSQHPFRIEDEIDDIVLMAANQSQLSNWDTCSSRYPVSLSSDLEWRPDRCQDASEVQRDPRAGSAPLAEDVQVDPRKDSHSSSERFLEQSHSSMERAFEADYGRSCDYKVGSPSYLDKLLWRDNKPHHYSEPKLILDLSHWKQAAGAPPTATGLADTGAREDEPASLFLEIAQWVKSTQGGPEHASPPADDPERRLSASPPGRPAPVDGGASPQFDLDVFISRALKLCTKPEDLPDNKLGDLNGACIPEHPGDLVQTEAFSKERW
UniProt P49137, whole entry, looked up: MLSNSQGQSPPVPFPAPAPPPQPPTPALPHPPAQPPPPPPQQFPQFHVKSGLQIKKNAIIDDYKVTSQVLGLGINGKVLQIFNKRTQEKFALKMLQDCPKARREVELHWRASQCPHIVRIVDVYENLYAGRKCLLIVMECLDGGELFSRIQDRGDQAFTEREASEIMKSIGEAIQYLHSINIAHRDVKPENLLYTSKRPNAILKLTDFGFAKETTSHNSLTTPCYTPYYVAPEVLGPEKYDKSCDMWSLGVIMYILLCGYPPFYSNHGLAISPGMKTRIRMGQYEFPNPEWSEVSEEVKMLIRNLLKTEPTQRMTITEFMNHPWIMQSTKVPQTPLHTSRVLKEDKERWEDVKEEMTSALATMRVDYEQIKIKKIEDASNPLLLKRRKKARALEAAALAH
UniProt Q9BUB5: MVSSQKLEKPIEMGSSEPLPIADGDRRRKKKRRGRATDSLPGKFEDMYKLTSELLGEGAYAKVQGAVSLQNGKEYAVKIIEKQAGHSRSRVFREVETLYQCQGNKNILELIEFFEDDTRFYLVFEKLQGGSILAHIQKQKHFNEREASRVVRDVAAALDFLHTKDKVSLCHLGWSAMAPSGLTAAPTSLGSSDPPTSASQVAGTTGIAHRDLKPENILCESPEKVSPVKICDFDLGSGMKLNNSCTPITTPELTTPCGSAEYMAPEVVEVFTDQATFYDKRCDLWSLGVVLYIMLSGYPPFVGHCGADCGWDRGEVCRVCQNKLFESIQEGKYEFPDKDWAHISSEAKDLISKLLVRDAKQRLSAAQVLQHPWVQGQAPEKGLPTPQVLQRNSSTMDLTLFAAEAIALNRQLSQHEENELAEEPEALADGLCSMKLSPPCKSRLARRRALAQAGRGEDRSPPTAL
UniProt Q16620, whole entry, looked up: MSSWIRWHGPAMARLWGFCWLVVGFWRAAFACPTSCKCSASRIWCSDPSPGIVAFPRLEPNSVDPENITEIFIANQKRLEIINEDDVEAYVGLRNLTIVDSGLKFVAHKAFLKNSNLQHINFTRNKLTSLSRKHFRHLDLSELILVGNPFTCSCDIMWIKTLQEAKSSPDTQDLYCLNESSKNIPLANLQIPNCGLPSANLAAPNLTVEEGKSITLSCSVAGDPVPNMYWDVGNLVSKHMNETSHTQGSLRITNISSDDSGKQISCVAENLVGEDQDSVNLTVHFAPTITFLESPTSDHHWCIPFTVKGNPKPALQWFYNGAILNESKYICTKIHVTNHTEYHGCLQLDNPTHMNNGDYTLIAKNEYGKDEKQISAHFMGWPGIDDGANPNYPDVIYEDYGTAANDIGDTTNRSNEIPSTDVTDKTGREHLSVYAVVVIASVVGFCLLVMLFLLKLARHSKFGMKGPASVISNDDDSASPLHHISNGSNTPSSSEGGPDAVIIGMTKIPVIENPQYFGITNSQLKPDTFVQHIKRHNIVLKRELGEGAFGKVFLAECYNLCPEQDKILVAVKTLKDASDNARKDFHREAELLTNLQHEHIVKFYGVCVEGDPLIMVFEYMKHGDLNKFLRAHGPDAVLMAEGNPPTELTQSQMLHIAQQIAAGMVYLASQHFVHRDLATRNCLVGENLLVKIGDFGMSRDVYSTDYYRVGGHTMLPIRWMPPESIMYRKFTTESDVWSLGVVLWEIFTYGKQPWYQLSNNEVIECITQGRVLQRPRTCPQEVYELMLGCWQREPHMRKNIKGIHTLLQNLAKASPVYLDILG

How the values were obtained:
Assay in all cases: number of time points (of 5) at which kinase-Nluc abundance scored as decreased, DMSO-normalised (count); higher = more persistent destabilization
Settings in all cases: K562; 2-18 h
LMTK2 = LMTK2 (UniProt Q8IWU2)
LYN = LYN (UniProt P07948)
MAP2K1 = MAP2K1 (UniProt Q02750)
MAP2K2 = MAP2K2 (UniProt P36507)
MAP4K2 = MAP4K2 (UniProt Q12851)
MAPK1 = MAPK1 (UniProt P28482)
MAPK4 = MAPK4 (UniProt P31152)
MAPKAPK2 = MAPKAPK2 (UniProt P49137)
MKNK1 = MKNK1 (UniProt Q9BUB5)
NTRK2 = NTRK2 (UniProt Q16620)

| Structure (SMILES) | number of time points (LMTK2) | number of time points (LYN) | number of time points (MAP2K1) | number of time points (MAP2K2) | number of time points (MAP4K2) | number of time points (MAPK1) | number of time points (MAPK4) | number of time points (MAPKAPK2) | number of time points (MKNK1) | number of time points (NTRK2) |
| --- | --- | --- | --- | --- | --- | --- | --- | --- | --- | --- |
| C=CC(=O)Nc1cccc(Oc2nc(Nc3ccc(N4CCN(C)CC4)cc3)nc3ccoc23)c1 [Poseltinib] (10 µM) | 0 | 0 | 0 | 0 | 0 | 0 | 0 | 0 | 0 | 0 |
| CN1CCN(CCCNc2ncc(Cl)c(-c3cc4c(C(=O)NC5CC5)cccc4s3)n2)CC1 (10 µM) | 0 | 0 | 0 | 0 | 0 | 0 | 0 | 0 | 0 | 0 |
| COc1ncc(Nc2ncc([C@@H](C)N3CCN(S(C)(=O)=O)CC3)cc2-c2nc(C)nc(N)n2)cc1F (10 µM) | 0 | 0 | 0 | 0 | 0 | 0 | 0 | 0 | 0 | 0 |
| Cc1cc2ncc(-c3ccccc3)nc2cc1C (10 µM) | 0 | 0 | 0 | 0 | 0 | 0 | 0 | 0 | 0 | 0 |
| CC(C)c1ccc(CC(=O)N2CCN(c3ccc(C#N)nn3)CC2)cc1 (10 µM) | 0 | 0 | 0 | 0 | 0 | 0 | 0 | 0 | 0 | 0 |
| O=c1cc(-c2ccc(O)c(O)c2O)oc2ccccc12 (10 µM) | 0 | 0 | 0 | 0 | 0 | 0 | 0 | 0 | 0 | 0 |
| CCOc1nc(Nc2ccc(C(=O)N3CCOCC3)cc2OC)nc2[nH]ccc12 [LRRK2 inhibitor 1] (2.5 µM) | 0 | 0 | 0 | 0 | 0 | 0 | 0 | 0 | 0 | 0 |
| O=C(Nc1ccc(Cl)cc1)C1CCCN(C(=O)c2cccc(-c3ccco3)c2)C1 (stereo not given) (2.5 µM) | 0 | 0 | 0 | 0 | 0 | 0 | 0 | 0 | 0 | 0 |
| CCOc1ccccc1C=C1C(=O)Nc2ccccc21 (10 µM) | 1 | 0 | 0 | 0 | 0 | 0 | 2 | 0 | 1 | 1 |
| O=C(O)c1ccc(N2N=C(Cc3ccccc3)C(=Cc3ccc(-c4ccccc4F)o3)C2=O)cc1 (10 µM) | 0 | 0 | 0 | 0 | 0 | 0 | 0 | 0 | 0 | 0 |
| COc1ccc(CNc2nc(N(CCO)CCO)nc3c2ncn3C(C)C)cc1 (2.5 µM) | 2 | 0 | 0 | 0 | 0 | 0 | 0 | 0 | 0 | 0 |
| C[C@@H]1C[C@H]2O[C@@]3(O[C@@H]2C(C)(C)O)[C@H](O)[C@@]2(C)[C@@H]4CC[C@H]5C(C)(C)[C@@H](O[C@@H]6OC[C@H](O)[C@H](O)[C@H]6O)CC[C@@]56C[C@@]46CC[C@]2(C)[C@@H]13 [Cimiracemoside C] (10 µM) | 0 | 0 | 0 | 0 | 0 | 0 | 0 | 0 | 0 | 0 |
| CCCNC(=O)c1cn2ncnc(Nc3cc(C(=O)NC4CC4)ccc3C)c2c1C (10 µM) | 0 | 0 | 0 | 0 | 0 | 0 | 0 | 0 | 0 | 0 |
| O=C1NC(=O)C(c2cnc3ccccn23)=C1c1cn2c3c(cc(F)cc13)CN(C(=O)N1CCCCC1)CC2 (2.5 µM) | 0 | 0 | 0 | 0 | 0 | 0 | 0 | 0 | 0 | 0 |
| CC[C@H](Nc1ncnc2[nH]cnc12)c1oc2ccccc2c(=O)c1-c1cccc(F)c1 [Tenalisib] (10 µM) | 0 | 0 | 0 | 0 | 0 | 0 | 0 | 0 | 0 | 0 |

Single records, from the list above. Values in the order: number of time points (LMTK2) | number of time points (LYN) | number of time points (MAP2K1) | number of time points (MAP2K2) | number of time points (MAP4K2) | number of time points (MAPK1) | number of time points (MAPK4) | number of time points (MAPKAPK2) | number of time points (MKNK1) | number of time points (NTRK2)
`O=C(O)c1ccc(N2N=C(Cc3ccccc3)C(=Cc3ccc(-c4ccccc4F)o3)C2=O)cc1` (10 µM) in the list: 0 | 0 | 0 | 0 | 0 | 0 | 0 | 0 | 0 | 0
`C=CC(=O)Nc1cccc(Oc2nc(Nc3ccc(N4CCN(C)CC4)cc3)nc3ccoc23)c1` [Poseltinib] (10 µM) in the list: 0 | 0 | 0 | 0 | 0 | 0 | 0 | 0 | 0 | 0
